Source: publication PMC12167373
These are yes or no findings as the source states them, for the method shown. For some of these results: In cells and extracts the contact can be indirect. Some results given as binding are weak or reduced against the parent protein; the word gives no strength. Blank lines part the entries; values can stand above or below the substance they belong to.

The chains behind the UniProt entries cited, without tags or fusion partners. Where a name states a change or a piece, a line headed by the entry shows the natural chain unless it says otherwise. Residues count along the entry.
UniProt Q14694: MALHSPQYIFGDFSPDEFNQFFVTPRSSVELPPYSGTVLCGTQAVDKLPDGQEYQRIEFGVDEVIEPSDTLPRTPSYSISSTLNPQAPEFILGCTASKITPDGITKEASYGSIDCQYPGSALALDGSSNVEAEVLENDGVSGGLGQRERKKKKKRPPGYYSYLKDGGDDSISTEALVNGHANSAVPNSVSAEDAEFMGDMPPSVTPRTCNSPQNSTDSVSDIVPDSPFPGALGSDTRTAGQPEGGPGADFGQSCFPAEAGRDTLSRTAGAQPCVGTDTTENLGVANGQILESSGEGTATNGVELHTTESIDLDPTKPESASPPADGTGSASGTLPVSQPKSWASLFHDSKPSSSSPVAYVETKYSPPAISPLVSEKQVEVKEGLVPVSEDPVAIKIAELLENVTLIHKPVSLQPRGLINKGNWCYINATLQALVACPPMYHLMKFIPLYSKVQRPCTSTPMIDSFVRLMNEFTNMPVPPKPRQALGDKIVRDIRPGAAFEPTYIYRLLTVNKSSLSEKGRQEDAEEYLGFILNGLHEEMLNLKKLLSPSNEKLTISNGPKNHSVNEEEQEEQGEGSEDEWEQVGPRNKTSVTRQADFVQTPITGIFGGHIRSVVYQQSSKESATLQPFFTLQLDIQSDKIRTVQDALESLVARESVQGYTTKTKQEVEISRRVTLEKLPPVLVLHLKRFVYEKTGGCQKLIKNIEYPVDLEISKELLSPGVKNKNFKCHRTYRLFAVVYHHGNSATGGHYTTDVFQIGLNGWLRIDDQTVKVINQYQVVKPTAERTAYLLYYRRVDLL
USP10 fragment, amino acids 1-206: residues 1-206 of Q14694
UniProt P53350: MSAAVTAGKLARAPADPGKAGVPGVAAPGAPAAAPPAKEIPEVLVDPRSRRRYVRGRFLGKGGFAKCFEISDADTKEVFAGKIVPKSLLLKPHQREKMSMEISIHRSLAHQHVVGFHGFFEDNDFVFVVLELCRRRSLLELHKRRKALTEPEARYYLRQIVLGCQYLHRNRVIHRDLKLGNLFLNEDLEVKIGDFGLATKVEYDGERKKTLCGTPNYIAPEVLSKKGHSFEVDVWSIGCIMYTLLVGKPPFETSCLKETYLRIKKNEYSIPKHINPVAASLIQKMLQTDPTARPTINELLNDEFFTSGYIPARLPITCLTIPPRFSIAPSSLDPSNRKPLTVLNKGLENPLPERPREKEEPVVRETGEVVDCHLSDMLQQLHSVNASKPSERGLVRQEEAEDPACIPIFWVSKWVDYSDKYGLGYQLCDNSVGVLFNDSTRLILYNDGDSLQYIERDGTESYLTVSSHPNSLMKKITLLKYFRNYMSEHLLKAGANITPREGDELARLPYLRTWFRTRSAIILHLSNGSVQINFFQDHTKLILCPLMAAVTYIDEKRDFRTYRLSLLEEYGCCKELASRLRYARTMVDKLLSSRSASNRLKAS

Legend:
[1] = target: Ubiquitin-specific peptidase 10 (USP10), endogenous (human (endogenous in PANC-1 and MIAPaCa-2)) (UniProt Q14694); experiment: co-IP; endogenous proteins in PANC-1 and MIAPaCa-2 cells; IP lysis buffer, primary antibody and protein A/G agarose beads, 4 °C overnight
[2] = target: exogenous USP10, full length (UniProt Q14694); experiment: co-IP; exogenous proteins from plasmids transfected into HEK293 cells; IP lysis buffer, primary antibody and protein A/G agarose beads, 4 °C overnight; full length and fragments
[3] = target: USP10 fragment, amino acids 1-206 (UniProt Q14694); experiment: as above
GST-USP10 = GST-USP10 (UniProt Q14694); experiment: pull-down; GST-USP10 held on Glutathione Sepharose 4B; 1 μg rPLK1 added in NETN buffer, 4 °C for 4 h; washed three times with NETN buffer; both purified

binding [1]: binds
Substance: PLK1, endogenous (from UniProt P53350 1-603) (enzyme)

binding [2]: binds | binding [3]: binds
Substance: exogenous PLK1, full length (from UniProt P53350 1-603) (enzyme)

binding (GST-USP10): binds
Substance: recombinant PLK1 (from UniProt P53350 1-603) (enzyme)
